Data on 21 compounds can be found in PubChem BioAssay AID330 (DTP/NCI, 2004).

The structures appear in SMILES notation. The list is a part of this screen's results and no random one: it is rich in T/C values a quarter to a half above the control, in often repeated tests (any T/C) and in doses without a T/C. Other doses and runs of a compound stand elsewhere. T/C is the treated group as % of the vehicle group. Some doses have a count of surviving animals in place of a T/C: the source files T/C as zero there, which appears to mark a toxic dose or a test without result, not a measured value. Some doses without a T/C left all or most animals alive at the check, yet need not have been tolerated: the source hardly ever lists a survival T/C far under the control, and the zero likely stands for such cases as well. Counts of survivors are from the toxicity check (mostly the fifth day) where no day follows; animals may have died later. Schedule codes are those of the source, read here as Q, the interval in days (D) or hours (H), X, the number of doses. Some entries hold several experiments; the values are given in rising order. Where survival is the endpoint, the PubChem record calls one and a half times the control and up active, and a quarter to a half above the control has no call in these data; cut-offs in other NCI protocols can differ. Additions like (4×) say how often a value occurs here. Some T/C values are followed by the survivors on the day toxicity was checked, most often the fifth; where none is given, no animal had died by that day.

This assay concerns P388 leukemia ip, CD2F1 mice, survival T/C. As to the kind of experiment: NCI In Vivo Anticancer Drug Screen. Data for tumor model P388 Leukemia (intraperitoneal) in CD2F1 (CDF1) mice. The note with it: T/C endpoint: median survival time, higher T/C = longer survival.
[1] abbreviates: dose: 12.5 mg/kg/injection, schedule: Q04DX003 (ip), vehicle: saline.
[2] abbreviates: dose: 200.0 mg/kg/injection, schedule: Q01DX009 (ip), vehicle: saline with Tween-80.
Where [3] appears, read: dose: 400.0 mg/kg/injection, schedule: Q01DX009 (ip), vehicle: saline with Tween-80.
Setting [4] is: dose: 120.0 mg/kg/injection, schedule: Q01DX005 (ip), vehicle: saline with Tween-80.
Where [5] appears, read: dose: 240.0 mg/kg/injection, schedule: Q01DX005 (ip), vehicle: saline with Tween-80.
Setting [6] is: dose: 200.0 mg/kg/injection, schedule: Q01DX005 (ip), vehicle: saline.
Where [7] appears, read: dose: 240.0 mg/kg/injection, schedule: Q01DX005 (ip), vehicle: Klucel (hydroxypropylcellulose) (HPC).

Regarding `CC[n+]1ccc(Nc2ccc(NC(=O)c3ccc(Nc4cc[n+](CC)c5ccc([N+](=O)[O-])cc45)cc3)cc2)cc1`, the T/C (dose: 1.1 mg/kg/injection, schedule: Q01DX009 (ip), vehicle: saline) was 136 % of control; the T/C (dose: 1.65 mg/kg/injection, schedule: Q01DX009 (ip), vehicle: saline) was 127 % of control; the T/C (dose: 2.5 mg/kg/injection, schedule: Q01DX009 (ip), vehicle: saline) is 131 % of control; the T/C (dose: 3.75 mg/kg/injection, schedule: Q01DX009 (ip), vehicle: saline) was 140 % of control; the T/C (dose: 6.25 mg/kg/injection, schedule: Q04DX003 (ip), vehicle: saline) is 136 % of control; the T/C (dose: 7.0 mg/kg/injection, schedule: Q01DX009 (ip), vehicle: Klucel (hydroxypropylcellulose) (HPC)) is 149 % of control. In addition, under setting [1], the T/C was 145 % of control. The survivor count (dose: 25.0 mg/kg/injection, schedule: Q01DX009 (ip), vehicle: Klucel (hydroxypropylcellulose) (HPC)) is on record as 4 of 6 and the survivor count (dose: 37.5 mg/kg/injection, schedule: Q01DX009 (ip), vehicle: Klucel (hydroxypropylcellulose) (HPC)) was 0 of 6.

For `CCOP(=O)(O)SP(=O)(O)OCC.CCOP(=O)(O)SP(=O)(O)OCC.[Co]`, the survivor count is recorded as 0 of 6 (dose: 200.0 mg/kg/injection, schedule: Q01DX001 (ip), vehicle: saline) and 0 of 6 (dose: 400.0 mg/kg/injection, schedule: Q01DX001 (ip), vehicle: saline).

With `COC(=O)C1=C(C(=O)OC)P2(c3ccccc3)(c3ccccc3)N(c3ccccc3)C(=Nc3ccccc3)N2C1(c1ccccc1)c1ccccc1`, the survivor count (dose: 50.0 mg/kg/injection, schedule: Q01DX005 (ip), vehicle: Klucel (hydroxypropylcellulose) (HPC)) is reported as 6 of 6.

Consider `CC1(C)CC2(C)OC2C2(C1)N=NC(=O)O2` (stereo not drawn), for which the survivor count is, setting by setting: under setting [2], 5 of 6; under setting [3], 0 of 6.

In the case of `CC1(O)C(c2ccccc2)=C(c2ccccc2)C2(c3ccccc3)Oc3c(Cl)c(Cl)c(Cl)c(Cl)c3OC12c1ccccc1` (stereo not drawn), the survivor count (dose: 100.0 mg/kg/injection, schedule: Q01DX009 (ip), vehicle: saline with Tween-80) is on record as 6 of 6 and the survivor count under setting [2] was 6 of 6.

Consider `O=C1C(c2cnccn2)=C(O)c2ccccc21`, for which the survivor count by setting is: under setting [4], 0 of 6; under setting [5], 0 of 6.

Turning to `NC(=O)c1c(N)nn2c(-c3ccccc3)cc(-c3ccccc3)cc12`, under “dose: 200.0 mg/kg/injection, schedule: Q01DX001 (ip), vehicle: Klucel (hydroxypropylcellulose) (HPC)”, the survivor count was 6 of 6.

`CN(C)CCCNc1nnc(NCCCN(C)C)c2cc3ccccc3cc12`: the survivor count reads like this: (dose: 60.0 mg/kg/injection, schedule: Q01DX005 (ip), vehicle: saline) 0 of 6; (dose: 120.0 mg/kg/injection, schedule: Q01DX005 (ip), vehicle: saline) 0 of 6; (dose: 240.0 mg/kg/injection, schedule: Q01DX005 (ip), vehicle: saline) 0 of 6.

As to `[N-]=[N+]=[N-]`, the survivor count runs as follows: (dose: 12.0 mg/kg/injection, schedule: Q01DX009 (ip), vehicle: saline with Tween-80) 3 of 6; under setting [1], 6 of 6; (dose: 25.0 mg/kg/injection, schedule: Q04DX003 (ip), vehicle: saline) 1 of 6; (dose: 50.0 mg/kg/injection, schedule: Q04DX003 (ip), vehicle: saline) 0 of 6.

As for `Clc1ncccc1-n1cccc1/C=N\N=C/c1cccn1-c1cccnc1Cl`, the survivor count under setting [5] is 6 of 6.

As for `CC(C)(C)OC(=O)N1CC(O)CC1C(=O)O` (stereo not drawn), under setting [6], the survivor count is 0 of 5.

As to `Cc1c2cc3c(cc2cc2c4cc5c(cc4cc[n+]12)OCO5)OCO3` (tested in a mixture with another compound), the T/C by setting is: (dose: 0.66 mg/kg/injection, schedule: Q04DX003 (ip), vehicle: saline) 126 % of control; (dose: 1.0 mg/kg/injection, schedule: Q04DX003 (ip), vehicle: saline) 131 % of control; (dose: 2.2 mg/kg/injection, schedule: Q04DX003 (ip), vehicle: saline) 140 % of control; (dose: 3.3 mg/kg/injection, schedule: Q04DX003 (ip), vehicle: saline) 131 % of control.

Consider `CC(N=[N+]=[N-])n1nnnc1-c1ccccc1` (stereo not drawn), for which the survivor count (dose: 400.0 mg/kg/injection, schedule: Q01DX001 (ip), vehicle: Klucel (hydroxypropylcellulose) (HPC)) was 2 of 6.

Turning to `C[n+]1ccc(C#N)c(C#N)c1`, the survivor count reads like this: (dose: 60.0 mg/kg/injection, schedule: Q01DX005 (ip), vehicle: Klucel (hydroxypropylcellulose) (HPC)) 2 of 6; (dose: 120.0 mg/kg/injection, schedule: Q01DX005 (ip), vehicle: Klucel (hydroxypropylcellulose) (HPC)) 0 of 6; under setting [7], 0 of 6.

Consider `C#CC(C)(C)Oc1ccc2c(=O)c(-c3ccc(OC)cc3)coc2c1`, for which the survivor count (dose: 200.0 mg/kg/injection, schedule: Q01DX005 (ip), vehicle: saline with Tween-80) is listed as 6 of 6.

In the case of `CN(CCCNc1c2ccccc2nc2ccccc12)CCCNc1c2ccccc2nc2ccccc12`, the T/C was 130 % of control (2×) (dose: 2.5 mg/kg/injection, schedule: Q01DX009 (ip), vehicle: other); 131 [5 of 6 alive] and 144 % of control (dose: 5.0 mg/kg/injection, schedule: Q01DX009 (ip), vehicle: other). Moreover, the survivor count is 0 of 6 and 1 of 6 (dose: 10.0 mg/kg/injection, schedule: Q01DX009 (ip), vehicle: other); 0 of 6 (dose: 20.0 mg/kg/injection, schedule: Q01DX009 (ip), vehicle: other); 0 of 6 (dose: 40.0 mg/kg/injection, schedule: Q01DX009 (ip), vehicle: other).

On to `Cc1ccc(C(=O)C[n+]2ccccc2)c(O)c1`, for which the survivor count under setting [5] is on record as 2 of 6.

As to `c1ccc(-c2ccc(NCCN3CCOCC3)nn2)cc1`, under setting [7], the survivor count is given as 6 of 6.

Turning to `C[n+]1ccccc1-c1ccc[n+](CCCCC[n+]2cccc(-c3cccc[n+]3C)c2)c1`, the survivor count under setting [6] was 0 of 6.

`COc1ccc(Br)cc1C(Nc1nncs1)Nc1nncs1`: under setting [4], the survivor count is 6 of 6.

With `O=c1c2ccccc2sc2cccc(Sc3ccccc3)c12`, the survivor count under setting [2] is on record as 5 of 6 and the survivor count under setting [3] was 6 of 6.
